The values that follow come from PMC3636440.

Protein sequences, listed by entry. Tags and fused reporters are not part of them. Residues count along the entry.
UniProt Q6PDQ2, residues 1658-1915: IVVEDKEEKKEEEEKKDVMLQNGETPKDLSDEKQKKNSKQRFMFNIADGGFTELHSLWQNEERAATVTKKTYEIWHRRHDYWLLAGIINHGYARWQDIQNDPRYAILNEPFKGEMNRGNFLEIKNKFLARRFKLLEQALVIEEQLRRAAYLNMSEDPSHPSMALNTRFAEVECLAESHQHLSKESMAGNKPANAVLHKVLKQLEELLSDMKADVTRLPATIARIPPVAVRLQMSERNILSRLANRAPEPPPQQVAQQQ

For assay [1], the target named is GAL4-BD fusion of the N-terminal region of Zinc finger protein 819 (Zfp819_N) (mouse) (UniProt F7A2T8). Briefly: two-hybrid; direct-Y2H: purified prey clone co-transformed with bait construct or empty pGBKT7 into AH109; SD/-Leu/-Trp, then SD/-Leu/-Trp/-His/-Ade and X-alpha-Gal plates.
Assay [2] shares this target. As to the kind of experiment: two-hybrid; GAL4-based library screen: mouse ESC cDNA library (pGADT7-Rec, AH109) mated with Y187 carrying pGBKT7-Zfp819_N; selection on SD/-Leu/-Trp/-His/-Ade and X-alpha-Gal; auto-activating clones excluded by direct-Y2H.

No constants are given. Whether binding was seen depends on the method and setting. A result given as binding can be weak or reduced; the word gives no strength.

Consider “Chromodomain helicase DNA-binding protein 4 (Chd4), C-terminal region prey clone (from UniProt Q6PDQ2 1658-1915) (domain or fragment)”, for which the binding result in assay [1] and in assay [2] was “binds” each time.
